Reference: patent US20090298797A1, “COMBINATION THERAPY FOR THE TREATMENT OF INFLUENZA” (priority 2008, published 2009)
Some entries share one result that the patent states for a list of compounds.

Columns and labels:
[1] = system: influenza A virus strain A/Vietnam/1194/04 (H5N1); parameters: species or system BALB/c mice; details: mouse, in vivo
[2] = system: influenza A virus strain A/Vietnam/1194/04 (H5N1); parameters: species or system BALB/c mice; details: mouse, in vivo; remark: listed apart in the source

CC(=O)N[C@H]1[C@H]([C@H](O)[C@H](O)CO)OC(C(=O)O)=C[C@@H]1N=C(N)N [zanamivir]
decrease of viral titers in tracheal-pulmonary lavage by TCID50 [1]: > 2.5 logs | decrease of copies of viral RNA genomes in lung tissues by real-time quantitative RT-PCR [2]: > 2.5 logs
